Measured values taken from the supplement of paper PMC12067093, “Discovery and optimisation of a covalent ligand for TRIM25 and its application to targeted protein ubiquitination” (Chemical Science, 2025).
The list shows a part of the results.

Compound: CC1Cc2ccccc2N1C(=O)C1CCCN(C1)C(=O)CCl (mixture of isomers) [TRIM25 ligand 11 (diastereomer mixture)]
Test: probe-labelled cysteine peptide fold change vs DMSO (competition) (log2 fold change); higher = less target engagement (more negative = stronger competition)
Conditions: 50 µM; THP-1; incubation time: 4 h
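Also: competitive chemoproteomic profiling in live THP-1 cells with an iodoacetamide desthiobiotin (IA-DTB) probe, comparing probe-labelled peptide intensities in compound-treated cells against DMSO-treated controls.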

| Target | probe-labelled cysteine peptide fold change |
| --- | --- |
| PTPRC_P08575_853_RVNAFSNFFSGPIVVHCSAGVGR (UniProt P08575) | 0.0781 |
| PTPRF_P10586_54_VPEDQTGLSGGVASFVCQATGEPKPR (UniProt P10586) | -0.14 |
| PSMA7_O14818_70_KICALDDNVCMAFAGLTADAR (UniProt O14818) | 0.349 |
| PSMD2_Q13200_779_GTLTLCPYHSDR (UniProt Q13200) | 0.131 |
| PSTPIP1_O43586_259_LTLEGCSIDADIDSFIQAK (UniProt O43586) | -0.0294 |
| PSMA5_P28066_165_GPQLFHMDPSGTFVQCDAR (UniProt P28066) | -0.0584 |
| PTK2B_Q14289_972_LAQQNAVTSLSEECKR (UniProt Q14289) | 0.0276 |
| PSMC3_P17980_400_AVCVEAGMIALR (UniProt P17980) | -0.0442 |
| PSME4_Q14997_820_DDILQSLTIVHNCLIGSGNLLPPLK (UniProt Q14997) | -0.00648 |
| PSMC2_P35998_236_TDACFIR (UniProt P35998) | 0.0228 |
| PSD4_Q8NDX1_32_LPDHPQPMEILNLYLGDSLEPHPGECPR (UniProt Q8NDX1) | -0.268 |
| PSMB2_P49721_91_NLADCLR (UniProt P49721) | -0.117 |
| PTRH1_Q86Y79_179_VGIGRPAHPEAVQAHVLGCFSPAEQELLPLLLDR (UniProt Q86Y79) | 0.0397 |
| PSMD2_Q13200_616_VQQLLHICSEHFDSK (UniProt Q13200) | 0.16 |
| PSMA1_P25786_92_QECLDSR (UniProt P25786) | -0.0536 |
| PSMD2_Q13200_139_RFAADIISVLAMTMSGERECLK (UniProt Q13200) | -0.194 |

As a short view, part of the list above:

| Target | probe-labelled cysteine peptide fold change |
| --- | --- |
| PSMA7_O14818_70_KICALDDNVCMAFAGLTADAR (UniProt O14818) | 0.349 |
| PSMD2_Q13200_779_GTLTLCPYHSDR (UniProt Q13200) | 0.131 |
